Assay results as given in US10071158B2, “Combination of the application of antibodies for immunostimulation together with glucocorticoids” (Lindis Biotech GmbH, priority 2005, dated 2018).
Entries after “also recorded” stand apart in the source; their conditions may differ. For at least one compound, name, drawing or mass did not settle the structure.

What was measured:
[1] = test system: PBMC; test: Release of TNF-α by PBMC after stimulation with Herceptin without/with HER2/neu-positive tumour cells (HCT8); type: cell-based, human; details: Herceptin 1 mg/ml
[2] = test system: mononuclear cells of the peripheral blood (PBMC); test: Release of IL-6 by PBMC after stimulation with anti-EpCAM x anti-CD3 antibody without/with HCT8 tumour cells (ELISA); type: cell-based, human; details: for release of IL-6 (non-specific): antibody-stimulated PBMC without HCT8
Protocol: FIG. 1A represents the release of IL-6, the IL-6 concentration in pg/ml being plotted on the y-axis. On the x-axis the respective stimulation of the PBMC has been plotted, with unstimulated PBMC serving by way of control (bar “PBMC”). In this connection, E signifies in each instance the stimulation with 100 μg/ml trifunctional bispecific antibody with the specificity anti-EpCAM x anti-CD3. […] In the experiment according to FIG. 1A the release of IL-6 from PBMC is investigated after stimulation without contact with EpCAM-positive tumour cells (=target cells). The stimulation without EpCAM-positive tumour cells corresponds to the non-specific release of cytokine, which is independent of the antigen binding. Release is accordingly effected systemically by the totality of the PBMC.
This procedure of stimulation with EpCAM-positive tumour cells corresponds to the situation of the release of IL-6 by the PBMC at the site of antigen binding. […] IL-6 is only released from immune cells that are directly involved in the specific immune reaction. The absolutely higher release (cf. the graduation of the y-axis in FIG. 1B with that in FIG. 1A) is therefore not to be appraised as a sign of a heightened side-effect, but is explained through the specific immunological action at the site of antigen binding. In the clinical use of the immunostimulating antibody together with the glucocorticoid the high quantity of IL-6 is released only by a few PBMC that are directly involved in the specific action. But the side-effects result from the non-specific release of interleukins by the totality of the PBMC (documented in the above FIG. 1A).
FIG. 1C represents in a further diagram a percentage comparison of the release of IL-6 after stimulation without/with HCT8 cells (target cells) in accordance with FIGS. 1A and 1B described above. […] The respectively left-hand bars represent the values after stimulation without HCT8, whereas the respectively right-hand bar indicates the result after stimulation with HCT8 cells.
(§1) FIGS. 11 to 13 Show graphic representations of the results of the release of various cytokines in healthy test subjects by PBMC (at a concentration of 10^6 cells/ml) after stimulation with a trifunctionally bispecific antibody of the specificity anti-EpCAM x anti-CD3 (AK) (at a concentration of 100 ng/ml) without and in the presence of EpCAM-positive tumour cells (HCT8) (at a concentration of 5×10^4 cells/ml). On the y-axes the concentration of the respective cytokine in pg/ml has been plotted. On the x-axes the respective stimulation assays of the PBMC have been plotted. […] The values of unstimulated PBMC by way of control are likewise specified (“PBMC”).
(§2) The stimulation of the PBMC without contact with EpCAM-positive tumour cells (HCT8 cells) corresponds (as also in FIGS. 1 to 3) to the non-specific release of cytokine, which is independent of the antigen binding (antibody/antigen interaction). The release of the respective cytokines is accordingly effected systemically by the totality of the PBMC. The stimulation of the PBMC with contact with EpCAM-positive tumour cells corresponds, on the other hand, to the release of the respective cytokines directly by the PBMC at the site of antigen binding. […] The respective cytokines are then released only by the immune cells that are directly involved in the specific immune reaction.
(§3) FIGS. 14 to 16 show graphic representations of the results of the release of various cytokines in tumour patients by PBMC. The experimental assays (concentrations, substances and cells used) correspond to those of the assays represented in FIGS. 11 to 13. The release of the same cytokines was measured likewise. By virtue of this, the results of the healthy test subjects (FIGS. 11 to 13) can be compared with those of the tumour patients (FIGS. 14 to 16). Likewise, the plotting on the y- and x-axes of the graphics corresponds to those of FIGS. 11 to 13. […]

[3] = cited from earlier work
[4] = test system: mononuclear cells of the peripheral blood (PBMC); test: Release of TNF-α by PBMC after stimulation with anti-EpCAM x anti-CD3 antibody without/with HCT8 tumour cells (ELISA); type: cell-based, human; details: for release of TNF-α: antibody 100 ng/ml
Source text: FIG. 2A-2C represents in diagrams the results of the release of tumour necrosis factor α (TNF-α) after stimulation with trifunctional bispecific antibody of the specificity anti-EpCAM x anti-CD3 without and in the presence of EpCAM-positive tumour cells.
This stimulation without target cells corresponds, in turn, as already stated with respect to FIG. 1A, to the systemic, non-specific release of cytokine, which arises independently of the antibody/antigen interaction. This systemic release of TNF-α is effected by the totality of the PBMC population. […] At a concentration of 0.1 μg/ml a great reduction of the release of TNF-α already occurs, which amounts to about one fifth of the release of TNF-α that arises in the case of a stimulation with antibody without administration of glucocorticoid.
FIG. 2B represents, in a diagram similar to FIG. 1B, the release of TNF-α from PBMC after antibody stimulation with contact with EpCAM-positive tumour cells, the TNF-α concentration in pg/ml being plotted, here too, on the y-axis. The remainder of the plotting corresponds to that of FIG. 1B. The stimulation with EpCAM-positive tumour cells as target cells, which was carried out in this experimental arrangement, corresponds to the situation of the release of TNF-α by the PBMC at the site of antigen binding. […] In the case of stimulation with contact with EpCAM-positive tumour cells, in comparison with the stimulation without contact with target cells, in connection with the release of TNF-α absolutely higher values are also measured, which, however, as already stated above with respect to the release of IL-6 in connection with FIG. 1B, has its origin in the specific immunological action at the site of the antibody/antigen interaction.
FIG. 2C represents, in a plotting corresponding to FIG. 1C, a percentage comparison of the release of TNF-α after stimulation without (in each instance, left-hand bar) and with (in each instance, right-hand bar) HCT8 target cells. […] With regard to the application, cf. FIG. 1C.
as §1, §2, §3

[5] = test system: mononuclear cells of the peripheral blood (PBMC); test: Release of IL-10 by PBMC after stimulation with anti-EpCAM x anti-CD3 antibody without/with HCT8 tumour cells (ELISA); type: cell-based, human; details: for release of IL-10: antibody 100 ng/ml
[6] = test system: PBMC; test: Release of IL-6 by PBMC after stimulation with Herceptin without/with HER2/neu-positive tumour cells (HCT8); type: cell-based, human; details: Herceptin 1 mg/ml
[7] = test system: mononuclear cells of the peripheral blood (PBMC); test: Release of IFN-γ by PBMC after stimulation with anti-EpCAM x anti-CD3 antibody without/with HCT8 tumour cells (ELISA); type: cell-based, human; details: with HCT8; glucocorticoid below 1 μg/ml

## C[C@@H]1C[C@H]2[C@@H]3CCC4=CC(=O)C=C[C@]4(C)[C@@]3(F)[C@@H](O)C[C@]2(C)[C@@]1(O)C(=O)CO [dexamethasone]
[1]; dexamethasone (FIG. 18)
  decrease of TNF-α release without contact with HCT8 compared with contact: drastically more intensely
[1]; healthy test subjects, dexamethasone 0.01, 0.1, 1 μg/ml (FIG. 18)
  release of TNF-α: decreases
[2]; antibody-stimulated PBMC with EpCAM-positive tumour cells, dexamethasone, concentration not given
  release of IL-6 (specific): maintained
[2]; antibody-stimulated PBMC with HCT8, dexamethasone 1 μg/ml
  release of IL-6 (specific): indeed reduced but lies far above the systemic release; also recorded: maintained
[2]; dexamethasone 1 μg/ml
  release of IL-6 (non-specific): almost total suppression; also recorded: substantially reduced or has disappeared
[2]; dexamethasone 0.01-10 μg/ml
  release of IL-6 (non-specific): completely reduced; also recorded: reduces the release of IL-6 in concentration-dependent manner
[2]; healthy test subjects, antibody 100 ng/ml, dexamethasone 0.01, 0.1, 1 μg/ml (FIG. 12)
  release of IL-6: decreases
[2]; healthy test subjects, antibody 100 ng/ml, dexamethasone (FIG. 12)
  decrease of IL-6 release without contact with HCT8 compared with contact: distinctly more intensely
[2]; tumour patients, antibody 100 ng/ml, dexamethasone 0.01, 0.1, 1 μg/ml (FIG. 15)
  release of IL-6: decreases
[2]; tumour patients, dexamethasone (FIG. 15)
  decrease of IL-6 release without contact with HCT8 compared with contact: drastically more intensely
[3]
  action stronger than that of the natural adrenocortical hormone cortisone: approximately 30 times
[4]; healthy test subjects, dexamethasone 0.01, 0.1, 1 μg/ml (FIG. 13)
  release of TNF-α: decreases
[4]; healthy test subjects, starting from 0.1 μg/ml dexamethasone (FIG. 13)
  decrease of TNF-α release without contact with HCT8 compared with contact: more intensely
[4]; tumour patients, dexamethasone 0.01, 0.1, 1 μg/ml (FIG. 16)
  release of TNF-α: decreases
[4]; tumour patients, dexamethasone (FIG. 16)
  decrease of TNF-α release without contact with HCT8 compared with contact: far more intensely
[4]; with HCT8, addition of dexamethasone
  target-cell-specific release of TNF-α: fully maintained
[4]; with HCT8, dexamethasone 1 μg/ml and more (FIG. 2B)
  specific release of TNF-α: distinct reducing
[4]; without HCT8, 1 mg/ml dexamethasone
  non-specific release of TNF-α: totally disappeared
[4]; without HCT8, dexamethasone, concentration series
  release of TNF-α (non-specific): reduced or, in the case of correspondingly high glucocorticoid concentration, completely reduced; also recorded: reduces the release of TNF-α in concentration-dependent manner
[4]; without HCT8, glucocorticoid 1 μg/ml and higher
  release of TNF-α (non-specific): total suppression
[5]; healthy test subjects, dexamethasone 0.01, 0.1, 1 μg/ml (FIG. 11)
  release of IL-10: decreases
[5]; tumour patients, dexamethasone 0.01, 0.1, 1 μg/ml (FIG. 14)
  release of IL-10: decreases
[5]; tumour patients, dexamethasone (FIG. 14)
  decrease of IL-10 release without contact with HCT8 compared with contact: more gently; also recorded: more rapidly
[6]; dexamethasone (FIG. 17)
  decrease of IL-6 release without contact with HCT8 compared with contact: far more intensely
[6]; healthy test subjects, dexamethasone 0.01, 0.1, 1 μg/ml (FIG. 17)
  release of IL-6: decreases
[7]
  target-cell-specific release of IFN-γ: substantially maintained
